Assay [1] addresses Anterior gradient 2 (AGR2), stably expressed in H1299-LZ4-AGR2 cells (human) (UniProt O95994). Put plainly: affinity purification with mass spectrometry; DSP-crosslinked H1299-AGR2 (heavy R10K8) and H1299 (light R0K0) lysates mixed 200 ug + 200 ug; overnight at 4 °C with biotinylated E7 peptide on streptavidin-agarose to capture AGR2 with its partners (F4 peptide as control); elution with 0.1 M glycine pH 2.5; LC-MS/MS with SILAC quantification.

Amino acid sequences for entries named in this document (tags omitted). A change or cut given only in a name is not applied to a line headed by its entry. Residues count along the entry.
UniProt O95994, residues 21-175: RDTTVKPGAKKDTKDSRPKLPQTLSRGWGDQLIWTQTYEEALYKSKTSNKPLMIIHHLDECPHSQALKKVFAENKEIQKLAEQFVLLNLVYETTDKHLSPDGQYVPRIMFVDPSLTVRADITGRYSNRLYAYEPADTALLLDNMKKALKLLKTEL
UniProt P30101, residues 25-505: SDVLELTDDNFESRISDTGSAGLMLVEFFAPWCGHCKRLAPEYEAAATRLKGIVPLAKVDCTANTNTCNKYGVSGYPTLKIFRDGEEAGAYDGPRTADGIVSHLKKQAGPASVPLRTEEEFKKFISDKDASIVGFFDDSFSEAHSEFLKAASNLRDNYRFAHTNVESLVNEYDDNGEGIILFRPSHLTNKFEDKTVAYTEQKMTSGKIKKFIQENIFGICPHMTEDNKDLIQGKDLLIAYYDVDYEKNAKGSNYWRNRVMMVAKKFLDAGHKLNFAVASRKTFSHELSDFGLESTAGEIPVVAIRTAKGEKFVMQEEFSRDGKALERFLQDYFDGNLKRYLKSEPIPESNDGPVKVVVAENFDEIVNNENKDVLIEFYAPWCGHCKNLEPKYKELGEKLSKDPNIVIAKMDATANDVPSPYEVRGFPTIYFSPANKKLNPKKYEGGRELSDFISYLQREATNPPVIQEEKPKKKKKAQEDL
UniProt P14314, residues 15-528: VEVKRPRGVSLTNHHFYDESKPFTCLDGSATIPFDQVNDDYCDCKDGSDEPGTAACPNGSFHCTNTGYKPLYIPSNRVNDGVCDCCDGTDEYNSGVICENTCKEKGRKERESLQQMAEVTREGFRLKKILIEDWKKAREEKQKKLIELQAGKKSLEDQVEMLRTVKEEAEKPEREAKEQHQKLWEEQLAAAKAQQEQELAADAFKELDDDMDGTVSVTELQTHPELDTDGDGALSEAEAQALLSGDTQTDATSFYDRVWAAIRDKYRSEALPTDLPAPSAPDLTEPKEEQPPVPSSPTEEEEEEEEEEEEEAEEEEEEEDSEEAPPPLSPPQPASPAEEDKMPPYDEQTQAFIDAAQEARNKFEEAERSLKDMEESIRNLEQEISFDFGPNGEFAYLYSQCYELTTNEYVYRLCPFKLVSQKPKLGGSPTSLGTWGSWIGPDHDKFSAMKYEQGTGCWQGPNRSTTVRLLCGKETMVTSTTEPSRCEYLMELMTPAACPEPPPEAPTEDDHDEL
UniProt O75369: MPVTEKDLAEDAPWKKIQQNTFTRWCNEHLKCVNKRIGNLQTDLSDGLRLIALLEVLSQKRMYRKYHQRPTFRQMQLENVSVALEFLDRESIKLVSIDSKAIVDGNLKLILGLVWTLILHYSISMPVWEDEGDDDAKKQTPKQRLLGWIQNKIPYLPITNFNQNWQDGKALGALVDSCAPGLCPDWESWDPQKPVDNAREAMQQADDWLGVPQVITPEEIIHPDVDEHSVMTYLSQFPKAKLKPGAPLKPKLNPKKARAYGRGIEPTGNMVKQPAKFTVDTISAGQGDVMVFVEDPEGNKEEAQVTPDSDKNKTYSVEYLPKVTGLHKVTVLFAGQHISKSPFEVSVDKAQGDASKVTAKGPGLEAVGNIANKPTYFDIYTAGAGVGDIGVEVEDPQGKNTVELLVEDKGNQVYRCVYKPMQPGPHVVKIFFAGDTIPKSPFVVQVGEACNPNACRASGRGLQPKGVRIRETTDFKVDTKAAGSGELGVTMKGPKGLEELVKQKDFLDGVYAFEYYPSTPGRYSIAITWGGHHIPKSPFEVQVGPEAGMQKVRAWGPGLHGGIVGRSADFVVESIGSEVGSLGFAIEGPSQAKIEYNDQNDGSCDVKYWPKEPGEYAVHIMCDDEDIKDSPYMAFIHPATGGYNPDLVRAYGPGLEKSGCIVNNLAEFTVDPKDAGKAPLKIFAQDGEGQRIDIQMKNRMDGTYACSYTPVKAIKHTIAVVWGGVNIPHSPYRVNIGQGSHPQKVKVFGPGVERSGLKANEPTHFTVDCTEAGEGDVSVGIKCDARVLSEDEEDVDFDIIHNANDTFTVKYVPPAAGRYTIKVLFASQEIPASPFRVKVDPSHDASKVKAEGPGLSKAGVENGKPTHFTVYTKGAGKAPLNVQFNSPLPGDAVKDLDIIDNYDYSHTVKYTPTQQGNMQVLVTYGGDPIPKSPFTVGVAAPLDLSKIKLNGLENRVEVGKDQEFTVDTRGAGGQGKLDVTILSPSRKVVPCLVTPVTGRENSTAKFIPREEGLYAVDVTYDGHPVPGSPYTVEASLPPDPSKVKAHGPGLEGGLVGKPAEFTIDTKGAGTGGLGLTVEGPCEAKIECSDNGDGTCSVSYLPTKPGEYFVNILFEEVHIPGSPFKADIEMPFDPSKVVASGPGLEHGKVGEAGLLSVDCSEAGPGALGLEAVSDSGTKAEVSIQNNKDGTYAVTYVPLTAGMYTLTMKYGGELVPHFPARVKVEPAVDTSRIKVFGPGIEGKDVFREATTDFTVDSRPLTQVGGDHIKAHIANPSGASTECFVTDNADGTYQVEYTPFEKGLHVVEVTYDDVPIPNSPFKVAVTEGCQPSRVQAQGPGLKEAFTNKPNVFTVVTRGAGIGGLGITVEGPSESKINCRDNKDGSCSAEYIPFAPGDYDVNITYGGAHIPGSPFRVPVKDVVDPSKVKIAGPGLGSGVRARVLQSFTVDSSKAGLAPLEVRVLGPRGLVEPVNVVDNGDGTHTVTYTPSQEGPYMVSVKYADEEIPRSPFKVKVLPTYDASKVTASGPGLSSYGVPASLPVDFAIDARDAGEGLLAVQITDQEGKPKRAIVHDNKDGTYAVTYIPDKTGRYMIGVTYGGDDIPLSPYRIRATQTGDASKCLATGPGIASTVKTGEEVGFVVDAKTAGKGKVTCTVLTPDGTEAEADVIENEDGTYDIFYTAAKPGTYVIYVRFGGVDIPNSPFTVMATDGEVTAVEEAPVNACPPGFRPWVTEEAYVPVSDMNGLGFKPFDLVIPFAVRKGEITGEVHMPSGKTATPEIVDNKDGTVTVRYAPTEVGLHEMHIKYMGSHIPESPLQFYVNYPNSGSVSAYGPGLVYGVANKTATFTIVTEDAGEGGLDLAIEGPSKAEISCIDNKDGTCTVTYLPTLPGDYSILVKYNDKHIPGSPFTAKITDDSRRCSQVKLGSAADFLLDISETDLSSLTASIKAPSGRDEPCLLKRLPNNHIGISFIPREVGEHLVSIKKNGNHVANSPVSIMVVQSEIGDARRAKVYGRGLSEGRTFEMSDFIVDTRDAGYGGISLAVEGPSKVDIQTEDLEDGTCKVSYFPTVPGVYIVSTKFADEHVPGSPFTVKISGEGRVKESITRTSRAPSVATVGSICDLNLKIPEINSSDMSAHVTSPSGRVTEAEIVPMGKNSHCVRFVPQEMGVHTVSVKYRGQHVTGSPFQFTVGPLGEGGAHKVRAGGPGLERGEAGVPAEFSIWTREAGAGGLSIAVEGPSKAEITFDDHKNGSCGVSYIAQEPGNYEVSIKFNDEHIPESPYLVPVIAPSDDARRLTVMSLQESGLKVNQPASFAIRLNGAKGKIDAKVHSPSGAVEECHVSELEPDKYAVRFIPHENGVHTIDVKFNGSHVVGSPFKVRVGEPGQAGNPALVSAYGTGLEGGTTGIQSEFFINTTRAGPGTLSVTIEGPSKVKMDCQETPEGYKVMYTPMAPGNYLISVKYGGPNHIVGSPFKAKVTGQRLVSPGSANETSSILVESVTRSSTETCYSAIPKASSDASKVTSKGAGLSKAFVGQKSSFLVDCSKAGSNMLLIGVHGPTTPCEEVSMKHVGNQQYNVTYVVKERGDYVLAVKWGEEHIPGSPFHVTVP
UniProt P14625, residues 22-803: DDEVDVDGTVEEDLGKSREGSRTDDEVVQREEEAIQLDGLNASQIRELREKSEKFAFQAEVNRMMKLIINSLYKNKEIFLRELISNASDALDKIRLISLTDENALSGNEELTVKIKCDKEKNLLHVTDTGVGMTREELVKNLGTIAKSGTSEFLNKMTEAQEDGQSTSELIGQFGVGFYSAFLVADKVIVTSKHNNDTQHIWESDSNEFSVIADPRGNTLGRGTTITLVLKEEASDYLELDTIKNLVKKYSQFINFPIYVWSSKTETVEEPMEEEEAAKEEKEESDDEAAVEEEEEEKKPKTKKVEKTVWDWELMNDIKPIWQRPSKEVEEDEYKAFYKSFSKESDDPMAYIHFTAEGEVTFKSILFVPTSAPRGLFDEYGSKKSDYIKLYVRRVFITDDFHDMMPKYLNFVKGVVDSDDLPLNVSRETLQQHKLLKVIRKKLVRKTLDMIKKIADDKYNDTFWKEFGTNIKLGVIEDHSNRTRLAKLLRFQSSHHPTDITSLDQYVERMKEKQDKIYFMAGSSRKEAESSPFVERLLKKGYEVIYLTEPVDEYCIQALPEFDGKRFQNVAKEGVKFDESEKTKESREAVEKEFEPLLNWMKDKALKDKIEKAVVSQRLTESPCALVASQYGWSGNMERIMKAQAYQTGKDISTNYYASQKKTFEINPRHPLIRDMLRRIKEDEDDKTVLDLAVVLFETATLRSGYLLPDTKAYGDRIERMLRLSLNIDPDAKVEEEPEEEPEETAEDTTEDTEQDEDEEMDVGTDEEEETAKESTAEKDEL
UniProt P11021, residues 19-654: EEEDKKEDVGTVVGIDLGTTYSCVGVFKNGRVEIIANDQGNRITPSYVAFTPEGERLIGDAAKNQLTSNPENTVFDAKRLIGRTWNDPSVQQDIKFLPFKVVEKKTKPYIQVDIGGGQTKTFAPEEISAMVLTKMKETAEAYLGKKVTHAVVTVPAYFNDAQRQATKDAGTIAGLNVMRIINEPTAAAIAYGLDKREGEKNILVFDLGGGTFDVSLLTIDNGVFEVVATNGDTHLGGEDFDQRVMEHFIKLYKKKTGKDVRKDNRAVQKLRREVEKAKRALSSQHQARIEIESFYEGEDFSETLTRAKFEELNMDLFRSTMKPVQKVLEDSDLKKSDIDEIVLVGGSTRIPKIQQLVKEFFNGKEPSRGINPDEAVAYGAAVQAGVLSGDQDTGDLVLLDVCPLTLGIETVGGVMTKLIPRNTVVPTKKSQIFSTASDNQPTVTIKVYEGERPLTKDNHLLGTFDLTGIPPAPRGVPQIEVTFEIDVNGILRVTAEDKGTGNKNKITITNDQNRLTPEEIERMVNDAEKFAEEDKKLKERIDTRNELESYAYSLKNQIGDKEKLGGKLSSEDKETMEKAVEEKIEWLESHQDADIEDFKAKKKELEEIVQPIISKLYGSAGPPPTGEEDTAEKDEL
UniProt P38646, residues 47-679: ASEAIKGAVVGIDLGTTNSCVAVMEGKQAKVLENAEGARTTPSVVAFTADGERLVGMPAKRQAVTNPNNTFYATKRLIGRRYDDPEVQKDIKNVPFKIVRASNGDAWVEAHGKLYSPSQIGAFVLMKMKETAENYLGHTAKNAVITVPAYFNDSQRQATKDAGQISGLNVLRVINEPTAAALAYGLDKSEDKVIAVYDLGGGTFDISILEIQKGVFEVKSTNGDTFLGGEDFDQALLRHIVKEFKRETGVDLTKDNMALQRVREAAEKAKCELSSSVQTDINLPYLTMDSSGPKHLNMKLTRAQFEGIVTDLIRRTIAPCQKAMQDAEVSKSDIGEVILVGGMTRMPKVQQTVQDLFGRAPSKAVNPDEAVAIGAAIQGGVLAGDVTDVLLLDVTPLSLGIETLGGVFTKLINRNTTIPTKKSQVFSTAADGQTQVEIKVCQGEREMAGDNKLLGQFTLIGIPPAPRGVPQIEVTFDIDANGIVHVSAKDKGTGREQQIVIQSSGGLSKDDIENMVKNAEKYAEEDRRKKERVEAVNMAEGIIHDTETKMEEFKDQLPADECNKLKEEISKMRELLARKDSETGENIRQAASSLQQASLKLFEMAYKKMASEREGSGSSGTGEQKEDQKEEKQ

Assay [2] deals with Anterior gradient 2 (AGR2), endogenous (human (endogenous in T47D, A549)) (UniProt O95994). Put plainly: affinity purification with mass spectrometry; T47D cells crosslinked in vivo with 0.6 mM DSP (control: no DSP); 400 ug lysate incubated overnight at 4 °C with biotinylated E7 peptide on streptavidin-agarose to capture endogenous AGR2 with its partners (F4 peptide as control); elution with 0.1 M glycine pH 2.5; LC-MS/MS with label-free quantification.

These are yes or no findings as the source states them, for the method shown. In cells and extracts the contact can be indirect. These calls come from enrichment with a bait or labelling near it, and not all partners need be listed.

For the molecule “Protein disulfide isomerase family A, member 3 (PDIA3) (from UniProt P30101 25-505)”, the binding result in assay [1] and in assay [2] was “binds” each time. For the molecule “glucosidase 2 subunit beta (GLU2B) (from UniProt P14314 15-528)”, the binding entry in assay [1] and in assay [2] was “binds” throughout. For the molecule “filamin-B (FLNB) (from UniProt O75369 1-2602)”, the binding entry in assay [1] and in assay [2] was “binds” throughout. Consider “endoplasmin (ENPL) (from UniProt P14625 22-803)”, for which the binding result in assay [1] and in assay [2] was “binds” in each case. In the case of “Heat shock 70 kDa protein 5 (glucose-regulated protein, 78 kDa) (from UniProt P11021 19-654)”, the binding entry in assay [1] and in assay [2] was “binds” throughout. “Stress-70 protein (mitochondrial), 75 kDa glucose-regulated chaperone GRP75/HSPA9 (from UniProt P38646 47-679)”: the binding result in assay [1] and in assay [2] was “binds” each time. With “calreticulin (CALR) (from UniProt P27797 18-417)”, the binding entry in assay [1] and in assay [2] was “binds” each time.

B1: HYOU1 (protein, UniProt Q9Y4L1 33-999)
chain: LAVMSVDLGSESMKVAIVKPGVPMEIVLNKESRRKTPVIVTLKENERFFGDSAASMAIKNPKATLRYFQHLLGKQADNPHVALYQARFPEHELTFDPQRQTVHFQISSQLQFSPEEVLGMVLNYSRSLAEDFAEQPIKDAVITVPVFFNQAERRAVLQAARMAGLKVLQLINDNTATALSYGVFRRKDINTTAQNIMFYDMGSGSTVCTIVTYQMVKTKEAGMQPQLQIRGVGFDRTLGGLEMELRLRERLAGLFNEQRKGQRAKDVRENPRAMAKLLREANRLKTVLSANADHMAQIEGLMDDVDFKAKVTRVEFEELCADLFERVPGPVQQALQSAEMSLDEIEQVILVGGATRVPRVQEVLLKAVGKEELGKNINADEAAAMGAVYQAAALSKAFKVKPFVVRDAVVYPILVEFTREVEEEPGIHSLKHNKRVLFSRMGPYPQRKVITFNRYSHDFNFHINYGDLGFLGPEDLRVFGSQNLTTVKLKGVGDSFKKYPDYESKGIKAHFNLDESGVLSLDRVESVFETLVEDSAEEESTLTKLGNTISSLFGGGTTPDAKENGTDTVQEEEESPAEGSKDEPGEQVELKEEAEAPVEDGSQPPPPEPKGDATPEGEKATEKENGDKSEAQKPSEKAEAGPEGVAPAPEGEKKQKPARKRRMVEEIGVELVVLDLPDLPEDKLAQSVQKLQDLTLRDLEKQEREKAANSLEAFIFETQDKLYQPEYQEVSTEEQREEISGKLSAASTWLEDEGVGATTVMLKEKLAELRKLCQGLFFRVEERKKWPERLSALDNLLNHSSMFLKGARLIPEMDQIFTEVEMTTLEKVINETWAWKNATLAEQAKLPATEKPVLLSKDIEAKMMALDREVQYLLNKAKFTKPRPRPKDKNGTRAEPPLNASASDQGEKVIPPAGQTEDAEPISEPEKVETGSEPGDTEPLELGGPGAEPEQKEQSTGQKRPLKNDEL
Consider B1, for which the binding result in assay [2] was “binds”.

B2: Protein disulfide isomerase family A, member 6 (PDIA6) (protein, UniProt Q15084 20-440)
chain: LYSSSDDVIELTPSNFNREVIQSDSLWLVEFYAPWCGHCQRLTPEWKKAATALKDVVKVGAVDADKHHSLGGQYGVQGFPTIKIFGSNKNRPEDYQGGRTGEAIVDAALSALRQLVKDRLGGRSGGYSSGKQGRSDSSSKKDVIELTDDSFDKNVLDSEDVWMVEFYAPWCGHCKNLEPEWAAAASEVKEQTKGKVKLAAVDATVNQVLASRYGIRGFPTIKIFQKGESPVDYDGGRTRSDIVSRALDLFSDNAPPPELLEIINEDIAKRTCEEHQLCVVAVLPHILDTGAAGRNSYLEVLLKLADKYKKKMWGWLWTEAGAQSELETALGIGGFGYPAMAAINARKMKFALLKGSFSEQGINEFLRELSFGRGSTAPVGGGAFPTIVEREPWDGRDGELPVEDDIDLSDVELDDLGKDEL
With B2, the binding entry in assay [1] and in assay [2] was “binds” each time.

B3: propionyl-CoA carboxylase alpha chain (PCCA) (protein, UniProt P05165 53-728)
chain: SVGYDPNEKTFDKILVANRGEIACRVIRTCKKMGIKTVAIHSDVDASSVHVKMADEAVCVGPAPTSKSYLNMDAIMEAIKKTRAQAVHPGYGFLSENKEFARCLAAEDVVFIGPDTHAIQAMGDKIESKLLAKKAEVNTIPGFDGVVKDAEEAVRIAREIGYPVMIKASAGGGGKGMRIAWDDEETRDGFRLSSQEAASSFGDDRLLIEKFIDNPRHIEIQVLGDKHGNALWLNERECSIQRRNQKVVEEAPSIFLDAETRRAMGEQAVALARAVKYSSAGTVEFLVDSKKNFYFLEMNTRLQVEHPVTECITGLDLVQEMIRVAKGYPLRHKQADIRINGWAVECRVYAEDPYKSFGLPSIGRLSQYQEPLHLPGVRVDSGIQPGSDISIYYDPMISKLITYGSDRTEALKRMADALDNYVIRGVTHNIALLREVIINSRFVKGDISTKFLSDVYPDGFKGHMLTKSEKNQLLAIASSLFVAFQLRAQHFQENSRMPVIKPDIANWELSVKLHDKVHTVVASNNGSVFSVEVDGSKLNVTSTWNLASPLLSVSVDGTQRTVQCLSREAGGNMSIQFLGTVYKVNILTRLAAELNKFMLEKVTEDTSSVLRSPMPGVVVAVSVKPGDAVAEGQEICVIEAMKMQNSMTAGKTGTVKSVHCQAGDTVGEGDLLVELE
For the molecule B3, the binding entry in assay [1] and in assay [2] was “binds” throughout.

B4: ribophorin 1 (RPN1) (protein, UniProt P04843 24-607)
chain: ASSEAPPLINEDVKRTVDLSSHLAKVTAEVVLAHLGGGSTSRATSFLLALEPELEARLAHLGVQVKGEDEEENNLEVRETKIKGKSGRFFTVKLPVALDPGAKISVIVETVYTHVLHPYPTQITQSEKQFVVFEGNHYFYSPYPTKTQTMRVKLASRNVESYTKLGNPTRSEDLLDYGPFRDVPAYSQDTFKVHYENNSPFLTITSMTRVIEVSHWGNIAVEENVDLKHTGAVLKGPFSRYDYQRQPDSGISSIRSFKTILPAAAQDVYYRDEIGNVSTSHLLILDDSVEMEIRPRFPLFGGWKTHYIVGYNLPSYEYLYNLGDQYALKMRFVDHVFDEQVIDSLTVKIILPEGAKNIEIDSPYEISRAPDELHYTYLDTFGRPVIVAYKKNLVEQHIQDIVVHYTFNKVLMLQEPLLVVAAFYILFFTVIIYVRLDFSITKDPAAEARMKVACITEQVLTLVNKRIGLYRHFDETVNRYKQSRDISTLNSGKKSLETEHKALTSEIALLQSRLKTEGSDLCDRVSEMQKLDAQVKELVLKSAVEAERLVAGKLKKDTYIENEKLISGKRQELVTKIDHILDAL
Take B4: the binding result in assay [1] and in assay [2] was “binds” in each case.

B5: MCCA (protein, UniProt Q96RQ3 42-725)
chain: TTATGRNITKVLIANRGEIACRVMRTAKKLGVQTVAVYSEADRNSMHVDMADEAYSIGPAPSQQSYLSMEKIIQVAKTSAAQAIHPGCGFLSENMEFAELCKQEGIIFIGPPPSAIRDMGIKSTSKSIMAAAGVPVVEGYHGEDQSDQCLKEHARRIGYPVMIKAVRGGGGKGMRIVRSEQEFQEQLESARREAKKSFNDDAMLIEKFVDTPRHVEVQVFGDHHGNAVYLFERDCSVQRRHQKIIEEAPAPGIKSEVRKKLGEAAVRAAKAVNYVGAGTVEFIMDSKHNFCFMEMNTRLQVEHPVTEMITGTDLVEWQLRIAAGEKIPLSQEEITLQGHAFEARIYAEDPSNNFMPVAGPLVHLSTPRADPSTRIETGVRQGDEVSVHYDPMIAKLVVWAADRQAALTKLRYSLRQYNIVGLHTNIDFLLNLSGHPEFEAGNVHTDFIPQHHKQLLLSRKAAAKESLCQAALGLILKEKAMTDTFTLQAHDQFSPFSSSSGRRLNISYTRNMTLKDGKNNVAIAVTYNHDGSYSMQIEDKTFQVLGNLYSEGDCTYLKCSVNGVASKAKLIILENTIYLFSKEGSIEIDIPVPKYLSSVSSQETQGGPLAPMTGTIEKVFVKAGDKVKAGDSLMVMIAMKMEHTIKSPKDGTVKKVFYREGAQANRHTPLVEFEEEESDKRESE
Regarding B5, the binding entry in assay [1] and in assay [2] was “binds” each time.

For the origin of these results see article PMC8816719.
